# According to patent US20120039820A1 (Glaxo Group Limited, priority 2009, published 2012):
# Some of these results come from one statement about several compounds together.
# Tested on: S. mutans
# Assay: Kill time suspension test
# Assay type: cell-based, Streptococcus mutans
# Details: contact time not specified (30 s / 120 s), 1/4 dilution
substance,measurement,value
zinc gluconate [Zn Gluconate],log kill,< 0.5 log
